± gives the standard deviation of the averaged measurements.
System: Tasmanian devil fibroblasts
Assay: cell viability, percent of DMSO control (CellTiter-Glo); higher = more viable cells
Conditions: 72 h
Description: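 Eight-point dose titration of 41 screen hits in triplicate wells on four Tasmanian devil DFTD tumour cell lines (T1-T4) and devil fibroblasts, 384-well plates. Viability was read by CellTiter-Glo (ATP) after 72 h at 37 °C. Percent of control per plate: DMSO wells = 100%, positive-control wells = 0%.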

Row | Compound | cell viability (0.00617 µM) [%] | cell viability (0.0185 µM) [%] | cell viability (0.0556 µM) [%] | cell viability (0.166667 µM) [%] | cell viability (0.5 µM) [%] | cell viability (1.5 µM) [%] | cell viability (4.5 µM) [%] | cell viability (13.5 µM) [%] | other results
1 | COc1cccc2c1C(=O)c1c(O)c3c(c(O)c1C2=O)C[C@@](O)(C(=O)CO)C[C@@H]3O[C@H]1C[C@H](N)[C@H](O)[C@H](C)O1 [Doxorubicin] | 118 ± 33 | 104 ± 2.6 | 128 ± 38 | 125 ± 36 | 131 ± 46 | 81.6 ± 12 | 60.6 ± 15 | 21.6 ± 8.9 | –
2 | C#Cc1cccc(Nc2ncnc3cc(OCCOC)c(OCCOC)cc23)c1.Cl [Erlotinib hydrochloride] | 139 ± 40 | 125 ± 30 | 120 ± 66 | 115 ± 7.5 | 103 ± 25 | 103 ± 24 | 116 ± 20 | 112 ± 20 | –
3 | C#Cc1cccc(Nc2ncnc3cc(OCCOC)c(OCCOC)cc23)c1 [Erlotinib] | – | – | – | – | – | – | – | – | cell viability (0.0123 µM): 98.3 ± 9.9%; cell viability (0.037 µM): 108 ± 17%; cell viability (0.111111111 µM): 105 ± 32%; cell viability (0.333333 µM): 98.3 ± 7.3%; cell viability (1 µM): 92.8 ± 6.6%; cell viability (3 µM): 125 ± 41%; cell viability (9 µM): 101 ± 8.9%; cell viability (27 µM): 159 ± 53%
4 | COc1cc2c(cc1-c1c(C)noc1C)ncc1[nH]c(=O)n([C@H](C)c3ccccn3)c12 [I-BET151] | – | – | – | – | – | – | – | – | cell viability (0.0309 µM): 102 ± 5.2%; cell viability (0.0926 µM): 118 ± 27%; cell viability (0.277778 µM): 114 ± 43%; cell viability (0.833333 µM): 62.4 ± 8.8%; cell viability (2.5 µM): 69.6 ± 5.3%; cell viability (7.5 µM): 78.6 ± 14%; cell viability (22.5 µM): 98.1 ± 20%; cell viability (67.5 µM): 93.6 ± 20%
5 | Cc1cc(Nc2ncnc3ccc(NC4=NC(C)(C)CO4)cc23)ccc1Oc1ccn2ncnc2c1 [Irbinitinib(ARRY-380; ONT-380)] | 82.5 ± 13 | 110 ± 44 | 98.9 ± 19 | 102 ± 35 | 89 ± 6.6 | 108 ± 18 | 109 ± 22 | 143 ± 54 | –
6 | CS(=O)(=O)CCNCc1ccc(-c2ccc3ncnc(Nc4ccc(OCc5cccc(F)c5)c(Cl)c4)c3c2)o1.Cc1ccc(S(=O)(=O)O)cc1.Cc1ccc(S(=O)(=O)O)cc1.O [Lapatinib ditosylate monohydrate] | 107 ± 30 | 101 ± 58 | 124 ± 18 | 85.7 ± 17 | 89.5 ± 11 | 89 ± 12 | 157 ± 50 | 141 ± 9.3 | –
7 | CS(=O)(=O)CCNCc1ccc(-c2ccc3ncnc(Nc4ccc(OCc5cccc(F)c5)c(Cl)c4)c3c2)o1 [Lapatinib] | – | – | – | – | – | – | – | – | cell viability (0.0123 µM): 88.6 ± 7.5%; cell viability (0.037 µM): 109 ± 28%; cell viability (0.111111111 µM): 98.5 ± 17%; cell viability (0.333333 µM): 107 ± 5.8%; cell viability (1 µM): 93.6 ± 2.8%; cell viability (3 µM): 128 ± 50%; cell viability (9 µM): 88.7 ± 14%; cell viability (27 µM): 101 ± 37%
8 | C=CC(=O)Nc1cc(Nc2ncc(Cl)c(-c3c[nH]c4ccccc34)n2)c(OC)cc1N(C)CCN(C)C [Mutant EGFR inhibitor] | 103 ± 15 | 83.8 ± 14 | 116 ± 40 | 106 ± 24 | 92.9 ± 6.6 | 114 ± 8.7 | 70.7 ± 13 | 48.4 ± 23 | –
9 | CCOc1cc2ncc(C#N)c(Nc3ccc(OCc4ccccn4)c(Cl)c3)c2cc1NC(=O)/C=C/CN(C)C [Neratinib(HKI-272)] | 91.2 ± 4 | 97.2 ± 9.5 | 146 ± 46 | 118 ± 32 | 116 ± 17 | 105 ± 7.2 | 126 ± 36 | 126 ± 28 | –
10 | Cc1sc2c(c1C)C(c1ccc(Cl)cc1)=N[C@@H](CC(=O)Nc1ccc(O)cc1)c1nnc(C)n1-2 [OTX015] | – | – | – | – | – | – | – | – | cell viability (0.0123 µM): 117 ± 16%; cell viability (0.037 µM): 128 ± 52%; cell viability (0.111111111 µM): 94.2 ± 17%; cell viability (0.333333 µM): 75.9 ± 20%; cell viability (1 µM): 78.4 ± 12%; cell viability (3 µM): 81.3 ± 4.3%; cell viability (9 µM): 72.6 ± 2.5%; cell viability (27 µM): 109 ± 38%
11 | CCOc1cc2ncc(C#N)c(Nc3ccc(F)c(Cl)c3)c2cc1NC(=O)/C=C/CN(C)C [Pelitinib (EKB-569)] | 78.3 ± 7.2 | 143 ± 82 | 117 ± 21 | 96.8 ± 18 | 88.7 ± 4.4 | 119 ± 60 | 52.23 ± 0.52 | -3.7 ± 1.8 | –
12 | C=CC(=O)N1CCC(Oc2cc3c(Nc4ccc(Cl)c(Cl)c4F)ncnc3cc2OC)CC1 [Poziotinib (HM781-36B)] | 138 ± 38 | 106 ± 24 | 99.5 ± 15 | 113 ± 17 | 123 ± 47 | 72.9 ± 5.9 | 75.5 ± 5 | 6.96 ± 8.4 | –
13 | O=C(/C=C/c1cccc(S(=O)(=O)Nc2ccccc2)c1)NO [RLM 2-89] | – | – | – | – | – | – | – | – | cell viability (0.000617 µM): 129 ± 51%; cell viability (0.00185 µM): 101 ± 46%; cell viability (0.00556 µM): 113 ± 58%; cell viability (0.0167 µM): 129 ± 47%; cell viability (0.05 µM): 132 ± 46%; cell viability (0.15 µM): 122 ± 51%; cell viability (0.45 µM): 69.9 ± 12%; cell viability (1.35 µM): 44.7 ± 6.4%
14 | C=CC(=O)Nc1cccc(Nc2nc(Nc3ccc(N4CCN(C(C)=O)CC4)cc3OC)ncc2C(F)(F)F)c1 [Rociletinib (CO-1686, AVL-301)] | 134 ± 32 | 133 ± 63 | 121 ± 47 | 109 ± 14 | 104 ± 14 | 77.7 ± 18 | 91.5 ± 11 | 39.4 ± 4.7 | –
15 | Cn1cnc2c(F)c(Nc3ccc(Br)cc3Cl)c(C(=O)NOCCO)cc21.O=S(=O)(O)O [Selumetinib (AZD6244)] | 94.7 ± 16 | 113 ± 37 | 118 ± 66 | 86.1 ± 9 | 86.2 ± 10 | 89 ± 13 | 65.2 ± 35 | 49 ± 8.7 | –
16 | CC(C)(C)P(=NC(=S)NCCCO)(N1CCCCCC1)N1CCCCCC1 [T0503-0280] | 100 ± 17 | 84.4 ± 19 | 136 ± 39 | 159 ± 21 | 108 ± 12 | 88.7 ± 7.4 | 91.5 ± 13 | 216 ± 46 | –
17 | CCS(=O)(=O)c1cccc(-c2cc(C(=O)NC3CCN(C)CC3)c(C)c3[nH]c4ncc(C)cc4c23)c1 [TAK901] | 100 ± 15 | 101 ± 7.9 | 104 ± 26 | 116 ± 44 | 132 ± 68 | 91.2 ± 2.8 | 132 ± 12 | 123 ± 36 | –
18 | COc1cc2ncnc(Nc3ccc(O)c(Br)c3)c2cc1OC [WHI-P154] | 78.7 ± 20 | 135 ± 42 | 109 ± 26 | 97.2 ± 3.7 | 95.9 ± 13 | 114 ± 46 | 86.5 ± 1.5 | 84 ± 6.9 | –
19 | COCCn1c2c([n+](Cc3cnccn3)c1C)C(=O)c1ccccc1C2=O.[Br-] [YM155] | 112 ± 12 | 108 ± 52 | 119 ± 42 | 106 ± 23 | 119 ± 32 | 95.1 ± 6.8 | 113 ± 25 | 114 ± 12 | –

Three structures out of the list, ordered by number of heavy atoms, rising:
Row | Compound | cell viability (0.00617 µM) [%] | cell viability (0.0185 µM) [%] | cell viability (0.0556 µM) [%] | cell viability (0.166667 µM) [%] | cell viability (0.5 µM) [%] | cell viability (1.5 µM) [%] | cell viability (4.5 µM) [%] | cell viability (13.5 µM) [%] | other results
18 | COc1cc2ncnc(Nc3ccc(O)c(Br)c3)c2cc1OC [WHI-P154] | 78.7 ± 20 | 135 ± 42 | 109 ± 26 | 97.2 ± 3.7 | 95.9 ± 13 | 114 ± 46 | 86.5 ± 1.5 | 84 ± 6.9 | –
5 | Cc1cc(Nc2ncnc3ccc(NC4=NC(C)(C)CO4)cc23)ccc1Oc1ccn2ncnc2c1 [Irbinitinib(ARRY-380; ONT-380)] | 82.5 ± 13 | 110 ± 44 | 98.9 ± 19 | 102 ± 35 | 89 ± 6.6 | 108 ± 18 | 109 ± 22 | 143 ± 54 | –
7 | CS(=O)(=O)CCNCc1ccc(-c2ccc3ncnc(Nc4ccc(OCc5cccc(F)c5)c(Cl)c4)c3c2)o1 [Lapatinib] | – | – | – | – | – | – | – | – | cell viability (0.0123 µM): 88.6 ± 7.5%; cell viability (0.037 µM): 109 ± 28%; cell viability (0.111111111 µM): 98.5 ± 17%; cell viability (0.333333 µM): 107 ± 5.8%; cell viability (1 µM): 93.6 ± 2.8%; cell viability (3 µM): 128 ± 50%; cell viability (9 µM): 88.7 ± 14%; cell viability (27 µM): 101 ± 37%

From the supplement of paper PMC6335503
